Assay results reported in article PMC10163288.
The other results are listed elsewhere or left out.

B1: il10ra_site1_sap_20_mot_9c3e5e2d2b9ffb70dc788f52fbfab6d5_0001_1_000000198_0001_1_14_H_._HHH_b1_07345_0001_0000400032_0000003_0_0001_af2pred_0001 (protein)
chain: SSSSSEEERALRLLVKAYRLLLQGDPEEAEEVLEEALEVAEKGNDEAARKAIENLLRLLESSSSS
B2: il10ra_site1_sap_25_mot_HHH_b1_01513_af2_000000021_0001_1_16_H_._c7a8016648b91b3f39f317faa92015d4_0001_1_0002_0000100002_0000001_0_0001 (protein)
chain: SSSSSESEEILEEARKLLEELRERNDADELFRLIERAIKELLRLNDPEAARRLVEFFVHLSSSSS
B3: il10ra_site1_normal_mot_8756ee2cf497b5429c717dfc0c0bcfd6_0001_000000186_0001_1_13_H_._HHH_b2_00624_0001_0000100003_0000003_0 (protein)
chain: SSSSTEESEELYELLREAAELHHDGNPEEARELLEEAEELAREAGNDVALATIEYLLRLAGSSSS
B4: il10ra_site1_normal_mot_HHH_b1_00456_000000263_0001_1_17_H_._HHH_b2_04506_af2_0001_0000200005_0000001_0_1_af2pred_0001 (protein)
chain: SSSSSEEVEEEVRELLEKAEKITDRHEVAYLLIRAFALAAELRDEELKEEVRRVAQELADSSSSS
B5: il10ra_site1_sap_24_mot_HHH_b2_00952_af2_000000228_0001_1_18_H_._HHH_b2_04843_af2_0001_0000500014_0000001_0_0001_af2pred_0001 (protein)
chain: SSSSDKHLQQEVRALLWVAQIIDDKEAAELAVEIAEKIAEELGDEELKEEVEEVKEEIKNSSSSS
B6: il10ra_site1_normal_mot_HHH_b2_05813_000000266_0001_1_19_H_._HHH_b1_07748_0001_0000200010_0000002_0_af2pred_0001 (protein)
chain: SSSSNEEFLQILVEIQRLIDENPEYEEELRELAVRVAELLREKDREEAQKLLEEARELFEGSSSS
B7: il10ra_site1_normal_mot_HHH_b2_07569_000000265_0001_38_56_H_._HHH_b2_04128_af2_0001_0000400019_0000001_0 (protein)
chain: SSSSSDIARIAQEALRLAIRLGDQETVQEIWELVKEYFKKGDPEIEEALEELLEELKELGSSSSS
B8: il10ra_site1_sap_18_mot_HHH_b2_07413_af2_000000250_0001_42_56_H_._HHH_b2_00766_0001_0000500039_0000002_0_0001_af2pred_dldesign_0_af2pred (protein)
chain: SSAEEARAALDEAEALAKKKKDEKAIAAVRYLRELLDAAEAANNEEAIALVLRSAKTLLAILKES
B9: il10ra_site1_normal_mot_HHH_b1_00999_000000080_0001_41_55_H_._HHH_b1_04433_af2_0001_0000300038_0000001_0 (protein)
chain: SSSSDEEAEELREQAEEAAKEGDPQKALQLLQEAVRFALEESDEELLQEIWELVRKIGELKSSSS
B10: il10ra_site1_sap_15_mot_HHH_b2_04275_000000272_0001_20_36_H_._HHH_b2_06886_0001_0000100002_0000001_0_0001 (protein)
chain: SSSSDQEVFERVAEAIKEAIELLRNGNPEEAQKVIEEAIELAEEAGNRVMVWVLRWLLKRISSSS
B11: il10ra_site1_sap_8_mot_1c3c3e46dde0d4e4be3ec3dd9add6289_0001_000000096_0001_34_50_H_._HHH_b1_05516_0001_0000400033_0000002_0_0001 (protein)
chain: SSSSTSLERAWKIAREALERLQEGDEERVEELLRLLEELAEEFNNPIIEYLLEAIRRDLESSSSS
B12: il10ra_site1_sap_12_mot_HHH_b2_02315_000000136_0001_19_35_H_._HHH_b2_04721_0001_0000400033_0000001_1_0001 (protein)
chain: SSSSDEENQEVLELLREAFELALRGNPEEAEKVLERALKLAEEIGNPRAFEMIERMLRALKSSSS
B13: il10ra_site1_sap_29_mot_HHH_b2_00479_000000091_0001_1_12_H_._HHH_b1_02357_0001_0000800039_0000001_0_0001 (protein)
chain: DEELKEAIAQLLWALSRLLKDDPEKFKEVFHIAMQAYLAAQQGDEKEAEELVEELEELVRKLSSS
B14: il10ra_site1_sap_17_mot_9368472692dc9678e81f248f6367350b_0001_000000260_0001_20_35_H_._HHH_b1_01010_0001_0000500026_0000002_0_0001 (protein)
chain: SSSSDEEVRKAFELAARAMRVAHERGDAELLKELDRLAIELYREGDPRLAEELRELAEKILSSSS
B15: il10ra_site1_sap_14_mot_HHH_b1_04607_af2_000000104_0001_41_57_H_._HHH_b1_04456_0001_0000300015_0000001_0_0001 (protein)
chain: SSSSDEEYKEVKEALREAIELFKEGDPEEAEELLRELVEKLRELGNRLMVIQVEWLLELEKSSSS
B16: il10ra_site1_normal_mot_HHH_b1_05357_000000034_0001_23_39_H_._HHH_b1_01677_0002_0000100004_0000002_0_af2pred_0001 (protein)
chain: SSSSSSDEEEVERLLEEARKIEDPERVSELLTQALIIALRANNEELEEEVKEVAQELRSSSSSSS
B17: il10ra_site1_normal_mot_HHH_b1_04514_000000156_0001_1_18_H_._HHH_b2_03570_af2_0001_0000200014_0000001_0 (protein)
chain: SSSSSEEYELIKKIIEEVHRLQEEGDPEEAEELLRELAKLLEENNNLVALANVERLLRLLSSSSS
B18: il10ra_site1_normal_mot_HHH_b2_04742_000000132_0001_1_17_H_._4b1d40a09f4e66830ace03c15345b22d_0001_1_af2_0001_0000300017_0000001_0 (protein)
chain: DDIFKLQAELAAKDPKVLEAISERAREAKEEGDEQHFRTFLLLLQLVVELYGDPEAKELLEELEK
B19: il10ra_site1_sap_17_mot_e1dd4851c59bc1cdde016f988f6856bd_0001_1_000000200_0001_16_31_H_._b5d408fb59e05adbbadd706aaa09cbfb_0001_0001_0000700012_0000001_0_0001 (protein)
chain: SSSSDKEDRELIKAAIRLAKQAYEAGNDESARLILWAAEFLAEELGDEELRREIEELAEEISSSS
B20: il10ra_site1_sap_11_mot_HHH_b2_02287_000000121_0001_1_22_H_._HHH_b2_06223_af2_0001_0000400021_0000001_1_0001 (protein)
chain: SELEEARELVEEDPEEVAKEAREIARERGDPQMEETLELLLEAIERDPDNRAALYLLAQALAALR
B21: il10ra_site1_normal_mot_HHH_b2_06399_000000160_0001_1_19_H_._HHH_b1_05237_0001_0000100001_0000001_0 (protein)
chain: SSSSDVLEEVHRLIREAVELLQEGNPEEARKVIEEAVELAEENNNEVALIQAEFLARTIESSSSS
B22: il10ra_site1_sap_19_mot_HHH_b2_00076_000000055_0001_40_55_H_._HHH_b1_00748_0001_0000500032_0000001_0_0001 (protein)
chain: SSSSDEEVRELLEEAEELLEEGNPEEALEVVFRATHAAIQAQDPELLRLVWELVREVAKVSSSSS
B23: il10ra_site1_sap_15_mot_HHH_b1_08311_000000105_0001_40_57_H_._HHH_b2_03279_af2_0001_0000300013_0000001_0_0001 (protein)
chain: SSSSSDEAQELFEILREAIELMSQGNPEEAEELLEKARELAERLGNRVFRWLVEWLLERLSSSSS
B24: il10ra_site1_sap_23_mot_HHH_b2_02736_000000092_0001_22_38_H_._HHH_b1_07390_af2_0001_0000300014_0000002_0_0001_af2pred_0001 (protein)
chain: SSSSSEVEETIRVLLRAIRELIKRDPERARLAIRDAKVAIEHANDPELEKLLEELEEELESSSSS

What follows are binders tested against il10ra, Q13651 (assay: yeast display titration).

Row | Binder | apparent Kd
1 | B1 | inactive: no binding seen
2 | B2 | inactive: no binding seen
3 | B3 | inactive: no binding seen
4 | B4 | inactive: no binding seen
5 | B5 | inactive: no binding seen
6 | B6 | inactive: no binding seen
7 | B7 | inactive: no binding seen
8 | B8 | inactive: no binding seen
9 | B9 | inactive: no binding seen
10 | B10 | inactive: no binding seen
11 | B11 | inactive: no binding seen
12 | B12 | inactive: no binding seen
13 | B13 | inactive: no binding seen
14 | B14 | inactive: no binding seen
15 | B15 | inactive: no binding seen
16 | B16 | inactive: no binding seen
17 | B17 | inactive: no binding seen
18 | B18 | inactive: no binding seen
19 | B19 | inactive: no binding seen
20 | B20 | inactive: no binding seen
21 | B21 | inactive: no binding seen
22 | B22 | inactive: no binding seen
23 | B23 | inactive: no binding seen
24 | B24 | inactive: no binding seen

Random excerpt: 2 records from the list, in no set order.
Row | Binder | apparent Kd
5 | B5 | inactive: no binding seen
19 | B19 | inactive: no binding seen
